Results published in patent US20210277441A1, “METHOD OF SELECTING A POLYPEPTIDE OF INTEREST” (IMPERIAL COLLEGE INNOVATIONS LIMITED, priority 2018, published 2021).
At least one read-out could not be matched to a standard name with certainty.

Assay: Kinetics of evolved and parental enzymes, 2-methylpyrroline as variable substrate
Assay type: biochemical
Details: variable substrate 2-methylpyrroline; cofactor NADPH (0.25 mM)

B1: Myxococcus stipitatus imine reductase (protein)
chain: MKPTLTVIGAGRMGSALIKAFLQSGYTTTVWNRTKAKSEPLAKLGAHLADTVRDAVKRSDIIVVNVLDYDTSDQLLRQDEVTRELRGKLLVQLTSGSPALAREQETWARQHGIDYLDGAIMATPDFIGQAECALLYSGSAALFEKHRAVLNVLGGATSHVGEDVGHASALDSALLFQMWGTLFGTLQALAISRAEGIPLEKTTAFIKLTEPVTQGAVADVLTRVQQNRLTADAQTLASLEAHNVAFQHLLALCEERNIHRGVADAMYSVIREAVKAGHGKDDFAILTRFLK
modifications: Myxococcus stipitatus imine reductase
Molecule B1 has a kcat/Km of 420 M⁻¹ s⁻¹.
